Source: patent US20160201132A1, “GENE EXPRESSION BIOMARKERS OF LAQUINIMOD RESPONSIVENESS” (Teva Pharmaceutical Industries Ltd., priority 2013, published 2016)
Further values from the same series stand in other lists.

Test system: PBMC of RRMS patients
Assay: Gene expression microarray analysis (HG-U133A-2) of PBMC from RRMS patients treated with LAQ, ancillary study to ALLEGRO
Format: in vivo, human
Settings: for Fold-Change (4.0 vs. 0.0): after six months of treatment
Description: The goal of this ancillary study was to characterize gene expression changes and corresponding biological mechanisms induced in PBMC of RRMS patients by LAQ treatment. According to ALLEGRO clinical trial inclusion criteria, 25 patients were randomly assigned to receive LAQ (n=13, age 38.8±2.3 years, female/male ratio: 8/5) or placebo (n=12, age 37.2±3.4 years, female/male ratio: 8/4).
Peripheral blood samples were obtained from RRMS patients at baseline before start of LAQ treatment or placebo, after 0, 1, 6 and 24 month of treatment (visit 0, 1, 6 and 7 according to ALLEGRO clinical trial protocol correspondently) for gene microarray analysis.
Briefly, 1) Peripheral blood mononuclear cells (PBMC) were obtained from RRMS patients that participated in ALLEGRO and were treated daily with 0.6 mg LAQ or placebo. PBMC were subjected for gene expression analysis (HU-133A-2-Affymatrix arrays) at baseline and at 1 and 6 months of LAQ treatment; 2) Data was analyzed by Partek Genomics Solution software. Most informative genes (MIGs) were defined as those that differentiated between groups with p<0.01. Gene functional annotation, enrichment and pathway analysis were performed by Ingenuity software. For each time point, genes that changed in placebo group were excluded from further analysis; and 3) Verification of LAQ related mechanism was performed by Western blot.
PBMC were extracted from 15 ml peripheral blood, separated by Ficoll-Hypaque gradient. Total RNA was extracted using both Trizol (Invitrogen, USA) and Phase-Lock-Gel columns (Eppendorf, Germany) including a DNase digestion step. RNA integrity was assessed by RNA Experion automated electrophoresis system (Bio-Rad Laboratories, Hercules, Calif.).
Probe synthesis using 3 μg total RNA, hybridization, detection, and scanning was performed according to the standard Affymetrix, Inc. USA protocols; cDNA was synthesized using the Two-Cycle cDNA Synthesis Kit (Affymetrix, Inc., USA), and in-vitro transcription performed with the GeneChip IVT Labeling Kit (Affymetrix, Inc., USA). The biotin-labeled IVT-RNA was hybridized to HG-U133A-2 arrays containing 18,400 gene transcripts, each corresponding to 14,500 well-annotated human genes, washed in a GeneChip Fluidics Station 450 (Hewlett Packard, USA, GeneArray-™ scanner G2500A) and scanned according to the manufacturer's protocol (Affymetrix, Inc., USA).
Data analysis was performed on Partek Genomics Solution software (www.partek.com; Partek Incorporated, St. Louis, Mo.). Expression values were computed from raw CEL files by applying the Robust Multi-Chip Average (RMA) background correction algorithm. RMA correction included: 1) values background correction; 2) quintile normalization; 3) log 2 transformation; and 4) median polish summarization. The ANOVA, Repeated Measures and correlation analysis implicated in Partek software ware applied to evaluate LAQ effects. Most informative genes MIGs were defined as those that differentiated between experimental groups with p<0.01. All p-values were calculated for False Discovery Rate (FDR) multiple test correction at p=0.05.
Additionally, significance of individual genes was tested by parametric T-test and non parametric Mann-Whitney test using Bootstrapping approach based on repeated permutations of the data with 5% FDR for multiple testing.
Gene functional annotation, enrichment, and pathway analyses to identify the leading biological pathways that operated under LAQ treatment were performed by Ingenuity Pathways Analysis software (www.ingenuity.com).
ANOVA analysis was used to compare PBMC gene expression after 1, 6 or 24 month of LAQ treatment with baseline gene expression.
For each time point inventors performed analysis source of variation in dataset. (FIG. 1). Age, gender and batch effects were considered as confounders regarding LAQ or Placebo related changes. For each time point genes associated with Placebo effect were evaluated and excluded from further analysis. […]

Compound: CCN(C(=O)c1c(O)c2c(Cl)cccc2n(C)c1=O)c1ccccc1 [LAQ, 5-chloro-N-ethyl-4-hydroxy-1-methyl-2-oxo-N-phenyl-1,2-dihydroquinoline-3-carboxamide]
- Fold-Change (1.0 vs. 0.0) (221764_at C19orf22, one month of treatment vs baseline): −1.1412
- Fold-Change (1.0 vs. 0.0) (221942_s_at GUCY1A3, one month of treatment vs baseline): −1.708
- Fold-Change (1.0 vs. 0.0) (222121_at SGEF, one month of treatment vs baseline): −1.1164
- Fold-Change (1.0 vs. 0.0) (222382_x_at NUP205, one month of treatment vs baseline): −1.142
- Fold-Change (4.0 vs. 0.0) (ABCA2 expression): −1.205
- Fold-Change (4.0 vs. 0.0) (ABCB11 expression): −1.224
- Fold-Change (1.0 vs. 0.0) (ABL1 202123_s_at, one month of treatment): −1.102
- Fold-Change (4.0 vs. 0.0) (ACOT11 expression): −1.21
- Fold-Change (1.0 vs. 0.0) (ACSBG1 206465_at, one month of treatment): −1.549
- Fold-Change (4.0 vs. 0.0) (ACTC1 expression): −1.201
- Fold-Change (4.0 vs. 0.0) (ACTL6B expression): −1.195
- Fold-Change (4.0 vs. 0.0) (ADAM12 expression): −1.197
- Fold-Change (4.0 vs. 0.0) (ADAM22 expression): −1.195
- Fold-Change (4.0 vs. 0.0) (ADCY2 expression): −1.204
- Fold-Change (4.0 vs. 0.0) (ADH7 expression): −1.202
- Fold-Change (4.0 vs. 0.0) (ALDH1A3 expression): −1.208
- Fold-Change (4.0 vs. 0.0) (ALDH3A1 expression): −1.202
- Fold-Change (1.0 vs. 0.0) (ALOX12 207206_s_at, one month of treatment): −1.836
- Fold-Change (4.0 vs. 0.0) (AMH expression): −1.216
- Fold-Change (4.0 vs. 0.0) (AOC2 expression): −1.21
- Fold-Change (4.0 vs. 0.0) (AP3M2 expression): −1.197
- Fold-Change (4.0 vs. 0.0) (APBB2 expression): −1.204
- Fold-Change (4.0 vs. 0.0) (APOC2 expression): −1.21
- Fold-Change (4.0 vs. 0.0) (ARHGAP1 expression): −1.197
- Fold-Change (4.0 vs. 0.0) (ARHGEF4 expression): −1.224
- Fold-Change (4.0 vs. 0.0) (ASCL1 expression): −1.22
- Fold-Change (4.0 vs. 0.0) (ATP2B2 expression): −1.205
- Fold-Change (1.0 vs. 0.0) (ATP9A 212062_at, one month of treatment): −1.441
- Fold-Change (4.0 vs. 0.0) (AVL9 expression): −1.214
- Fold-Change (4.0 vs. 0.0) (B3GALT5 expression): −1.198
- Fold-Change (1.0 vs. 0.0) (BAT2D1 211948_x_at, one month of treatment): −1.083
- Fold-Change (4.0 vs. 0.0) (BTN1A1 expression): −1.199
- Fold-Change (4.0 vs. 0.0) (C1orf106 expression): −1.219
- Fold-Change (1.0 vs. 0.0) (C5orf4 48031_r_at, one month of treatment): −1.519
- Fold-Change (1.0 vs. 0.0) (C5orf4 220751_s_at, one month of treatment): −1.967
- Fold-Change (4.0 vs. 0.0) (C6 expression): −1.221
- Fold-Change (4.0 vs. 0.0) (C6orf208 expression): −1.222
- Fold-Change (4.0 vs. 0.0) (C8B expression): −1.2033
- Fold-Change (4.0 vs. 0.0) (C9orf7 expression): −1.2011
- Fold-Change (4.0 vs. 0.0) (C11orf20 expression): −1.2225
- Fold-Change (4.0 vs. 0.0) (C16orf68 expression): −1.22
- Fold-Change (4.0 vs. 0.0) (C20orf195 expression): −1.197
- Fold-Change (1.0 vs. 0.0) (CA2 209301_at, one month of treatment): −1.69
- Fold-Change (4.0 vs. 0.0) (CACNB1 expression): −1.196
- Fold-Change (1.0 vs. 0.0) (CALD1 201615_x_at, one month of treatment): −1.442
- Fold-Change (1.0 vs. 0.0) (CALM3 200622_x_at, one month of treatment): −1.2967
- Fold-Change (4.0 vs. 0.0) (CASR expression): −1.211
- Fold-Change (4.0 vs. 0.0) (CCDC33 expression): −1.209
- Fold-Change (4.0 vs. 0.0) (CCDC40 expression): −1.219
- Fold-Change (4.0 vs. 0.0) (CCDC87 expression): −1.201
- Fold-Change (4.0 vs. 0.0) (CCDC134 expression): −1.219
- Fold-Change (4.0 vs. 0.0) (CCT8 expression): −1.215
- Fold-Change (4.0 vs. 0.0) (CD84 expression): −1.224
- Fold-Change (4.0 vs. 0.0) (CD177 expression): −1.223
- Fold-Change (1.0 vs. 0.0) (CDC14B 221556_at, one month of treatment): −1.488
- Fold-Change (4.0 vs. 0.0) (CDC42BPA expression): −1.217
- Fold-Change (4.0 vs. 0.0) (CDH7 expression): −1.2116
- Fold-Change (1.0 vs. 0.0) (CDK2AP1 201938_at, one month of treatment): −1.366
- Fold-Change (4.0 vs. 0.0) (CDS1 expression): −1.196
- Fold-Change (1.0 vs. 0.0) (CELSR3 40020_at, one month of treatment): −1.121
- Fold-Change (1.0 vs. 0.0) (CELSR3 205165_at, one month of treatment): −1.165
- Fold-Change (4.0 vs. 0.0) (CHAF1B expression): −1.196
- Fold-Change (4.0 vs. 0.0) (CHD2 expression): −1.217
- Fold-Change (4.0 vs. 0.0) (CHIT1 expression): −1.207
- Fold-Change (4.0 vs. 0.0) (CHRNA2 expression): −1.217
- Fold-Change (4.0 vs. 0.0) (CIITA expression): −1.1982
- Fold-Change (4.0 vs. 0.0) (CKM expression): −1.208
- Fold-Change (1.0 vs. 0.0) (CLCA3P 220810_at, one month of treatment): −1.141
- Fold-Change (4.0 vs. 0.0) (CLDN18 expression): −1.214
- Fold-Change (1.0 vs. 0.0) (CLEC1B 220496_at, one month of treatment): −2.045
- Fold-Change (4.0 vs. 0.0) (CLIC4 expression): −1.197
- Fold-Change (1.0 vs. 0.0) (CLSTN2 219414_at, one month of treatment): −1.128
- Fold-Change (4.0 vs. 0.0) (CLTB expression): −1.198
- Fold-Change (4.0 vs. 0.0) (CNOT4 expression): −1.205
- Fold-Change (4.0 vs. 0.0) (CPSF1 expression): −1.205
- Fold-Change (4.0 vs. 0.0) (CRKL expression): −1.202
- Fold-Change (4.0 vs. 0.0) (CRYGB expression): −1.207
- Fold-Change (4.0 vs. 0.0) (CRYM expression): −1.201
- Fold-Change (1.0 vs. 0.0) (CTNNAL1 202468_s_at, one month of treatment): −1.416
- Fold-Change (1.0 vs. 0.0) (CTSA 200661_at, one month of treatment): −1.292
- Fold-Change (1.0 vs. 0.0) (CXCL5 214974_x_at, one month of treatment): −1.731
- Fold-Change (4.0 vs. 0.0) (CYP1B1 expression): −1.204
